## Primary screen of a compound library

By UniProt entry, the sequences of proteins in these tests, tags left out.
UniProt P9WPC5, whole entry: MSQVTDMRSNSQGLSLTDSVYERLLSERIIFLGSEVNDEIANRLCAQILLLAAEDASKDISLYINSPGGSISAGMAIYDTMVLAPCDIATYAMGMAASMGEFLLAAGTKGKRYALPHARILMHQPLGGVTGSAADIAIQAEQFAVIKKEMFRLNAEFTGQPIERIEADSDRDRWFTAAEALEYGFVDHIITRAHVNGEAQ
UniProt P9WPC3, whole entry partner: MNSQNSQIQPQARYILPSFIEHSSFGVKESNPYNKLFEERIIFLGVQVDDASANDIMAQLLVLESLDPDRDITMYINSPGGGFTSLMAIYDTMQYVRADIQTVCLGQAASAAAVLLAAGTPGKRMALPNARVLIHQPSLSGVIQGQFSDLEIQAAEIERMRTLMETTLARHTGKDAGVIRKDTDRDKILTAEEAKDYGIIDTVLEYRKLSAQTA

Source: ChEMBL document CHEMBL3988442, “University of Dundee, Small-Polar-MMV Screening Library” (2021).

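Protease assay of ClpP1P2, read by the AMC dye that it sets free. Target: ClpP1P2, Mycobacterium tuberculosis (UniProt P9WPC5 and UniProt P9WPC3). Compounds at 50 µM. Direction is inferred from only a few compounds that gave an IC50; most scored high, so higher reads as stronger inhibition. Most other retested compounds had strongly negative values. Of about 69,000 compounds tested this way, about 10 (0.015%) reached 50% or more in at least one test.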

Values are the deposited “Percent Effect”, in %. How 0% and 100% were set is not recorded. Most values in the screen are low, and negative values occur. This is an unselected part of the compounds tested.

{"smiles": "CN(C)C(CNC(=O)c1[nH]nc(C2CC2)c1Br)C1CC1", "stereo": "stereo not shown", "effect": -3.46}
{"smiles": "CSCc1noc(CN2CC3(CCCC3)CC2=O)n1", "effect": -6.078}
{"smiles": "CCOc1ccc(CNCc2ccc(C(=O)NC)cc2)cc1OCC", "effect": 2.96}
{"smiles": "Cc1nc2c(c(NCCNC(=O)C(C)C)n1)Cc1ccccc1OC2", "effect": -8.957}
{"smiles": "COC(=O)CC1CN(Cc2ccn(-c3ccc(F)cc3)n2)CCO1", "stereo": "stereo not shown", "effect": -16.02}
{"smiles": "CCn1cc(Br)c(C(=O)NCc2ccccc2)n1", "effect": -15.88}
{"smiles": "NC(=O)CN1CCCC(CCCc2ccccn2)(C(N)=O)C1", "stereo": "stereo not shown", "effect": -3.519}
{"smiles": "CN1CCN(C[C@H]2CN3CC[C@H]2C[C@@H]3CNC(=O)c2ccco2)CC1", "effect": 4.367}
{"smiles": "CNC(=O)CN(C)C(=O)c1ccc(-c2nc(C)cs2)cc1", "effect": -0.2558}
{"smiles": "CNC(=O)c1cccc(C2CNCCN2C(=O)c2ccn(C)n2)c1", "stereo": "stereo not shown", "effect": 0.06824}
{"smiles": "CNC(=O)[C@H]1C[C@@H]2CN(S(=O)(=O)c3ccc(C)cc3)C[C@@H]2N1C", "effect": -4.718}
{"smiles": "Cc1nc(CN2CCCN(C(=O)C3(C#N)CCCCC3)CC2)cs1", "effect": -3.366}
{"smiles": "Cc1[nH]ccc1C(=O)NC1CCC(N2C(=O)CCC2=O)CC1", "stereo": "stereo not shown", "effect": 3.092}
{"smiles": "Cc1nn(C)c(Cl)c1C1CCCN1C(=O)c1ccc2nncn2c1", "stereo": "stereo not shown", "effect": -3.089}
{"smiles": "COc1c(CNCc2nnc3n2CCCCC3)c(C(C)C)nn1C", "effect": -4.324}
{"smiles": "Cc1nc(NC2CC2)c2c(n1)c(C)nn2C", "effect": -5.363}
{"smiles": "Cn1cc(C(=O)N2CCN(Cc3cscn3)CC2)ccc1=O", "effect": 1.5}
{"smiles": "Cc1nc(C)n(CC2CCCN2CCC(=O)N2CCCCC2)n1", "stereo": "stereo not shown", "effect": -57.39}
{"smiles": "Cc1ccccc1OCCCC(=O)N1CCCC(n2cncn2)C1", "stereo": "stereo not shown", "effect": -2.829}
{"smiles": "Cn1nc(CNC(=O)NCc2ccc(Cl)cc2)c2c1CCOC2", "effect": -13.98}
{"smiles": "COc1ccc(CN2CCC(O)(CN3CCCCC3)C2)c(C)c1", "stereo": "stereo not shown", "effect": -17.24}
{"smiles": "Cc1nc(CN2C(=O)CC[C@@H]3[C@H]2CCN3C2CCOCC2)cs1", "effect": 0.3473}
{"smiles": "O=C(CC1CC1)N1CC[C@H]2[C@@H]1CCC(=O)N2c1cccnc1", "effect": -4.13}
{"smiles": "Cc1noc([C@@H]2CCO[C@@H]3CCN(Cc4cccs4)C[C@@H]32)n1", "effect": 3.966}
{"smiles": "CCc1sc(C(=O)Nc2cnn(CCN(C)C)c2)cc1C", "effect": 7.896}
{"smiles": "COCc1nc2n(n1)CCCC2Nc1nc(C2CC2)ns1", "stereo": "stereo not shown", "effect": -12.25}
{"smiles": "COc1cccc(OC2CN(C(=O)c3ccnc(OC)c3)C2)c1", "effect": -0.877}
{"smiles": "NC(=O)C(NC(=O)c1cc(Br)c[nH]1)c1ccccc1", "stereo": "stereo not shown", "effect": -5.756}
{"smiles": "CN1C(=O)CCC12CCN(S(=O)(=O)c1ccccc1)CC2", "effect": -12.12}
{"smiles": "Cc1cc(S(=O)(=O)Nc2cccc(OC(F)F)c2)sc1C(=O)O", "effect": -0.8782}
{"smiles": "Cc1ccncc1NS(=O)(=O)c1ccc(Cl)s1", "effect": -5.487}

The last 3 entries again:

SMILES,effect
CN1C(=O)CCC12CCN(S(=O)(=O)c1ccccc1)CC2,-12.12
Cc1cc(S(=O)(=O)Nc2cccc(OC(F)F)c2)sc1C(=O)O,-0.8782
Cc1ccncc1NS(=O)(=O)c1ccc(Cl)s1,-5.487